In one data set the target is MYB44 S145D (UniProt Q9FDW1). Put plainly: competition with a labelled probe. The following applies: 100-fold excess unlabelled vs labelled MBSII, specificity as wild type; 10 mM Tris pH 8.0, 5 mM MgCl2, 100 mM KCl, 0.02% Triton X-100, 0.1 mg/ml BSA, 0.25% Tween, 2.5 mM DTT, 3 ng/ul poly(dIdC); 30 min room temperature; recombinant protein; residues 1-305; label: none (competitor).

The chains behind the UniProt entries cited, without tags or fusion partners.
UniProt Q9FDW1, whole entry S145D: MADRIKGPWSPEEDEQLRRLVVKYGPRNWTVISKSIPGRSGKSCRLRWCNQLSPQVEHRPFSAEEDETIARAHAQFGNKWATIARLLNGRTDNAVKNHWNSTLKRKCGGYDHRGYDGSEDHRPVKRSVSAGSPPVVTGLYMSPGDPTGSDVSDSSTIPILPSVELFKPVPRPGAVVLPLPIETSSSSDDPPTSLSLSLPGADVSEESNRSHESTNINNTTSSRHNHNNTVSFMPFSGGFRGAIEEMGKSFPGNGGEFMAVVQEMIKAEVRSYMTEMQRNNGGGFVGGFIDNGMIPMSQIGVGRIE
UniProt Q9FDW1, whole entry S145A: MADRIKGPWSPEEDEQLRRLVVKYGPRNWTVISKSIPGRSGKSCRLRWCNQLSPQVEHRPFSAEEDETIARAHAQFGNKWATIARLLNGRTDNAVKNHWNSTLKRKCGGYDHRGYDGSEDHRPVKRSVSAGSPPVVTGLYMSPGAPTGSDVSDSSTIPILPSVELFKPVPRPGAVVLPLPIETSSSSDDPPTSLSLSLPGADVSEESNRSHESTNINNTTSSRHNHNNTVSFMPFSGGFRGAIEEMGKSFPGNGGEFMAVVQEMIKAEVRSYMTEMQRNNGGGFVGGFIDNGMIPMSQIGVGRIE

A further data set deals with MYB44 S145A (UniProt Q9FDW1). Put plainly: competition with a labelled probe. The following applies: 100-fold excess unlabelled vs labelled MBSII, specificity as wild type; 10 mM Tris pH 8.0, 5 mM MgCl2, 100 mM KCl, 0.02% Triton X-100, 0.1 mg/ml BSA, 0.25% Tween, 2.5 mM DTT, 3 ng/ul poly(dIdC); 30 min room temperature; recombinant protein; residues 1-305; label: none (competitor).

From paper PMC3578790 come the findings set out here.

No signal at the amounts used counts as a negative. At least one verdict rests on a figure or table, not on a statement of the authors. Construct, isoform or probe ends are uncertain for at least one entry. Weaker means in comparison with the reference protein, sequence or condition of that experiment.

Regarding “AGCTTAATGTGTGTCAGTTAGGGTGTCTCG (double strand) [MBSI]”, the binding result with MYB44 S145D and with MYB44 S145A was “binds more weakly” throughout.
For the sequence “AGCTTCAAAAGCCAGCCACG (double strand) [MBSIImut]”, the binding result with MYB44 S145D and with MYB44 S145A was “no binding” throughout.
